Patent US20250353812A1, “2,6-DIBENZYLIDENECYCLOHEXANONE OXIME COMPOUND AND PREPARATION METHOD THEREFOR AND USE THEREOF” (WENZHOU MEDICAL UNIVERSITY, priority 2022, published 2025)
For at least one compound, name, drawing or mass did not settle the structure.

Tested on: TNF-α
Assay: Inhibition of TNF-α release from J774A.1 macrophages stimulated by LPS (ELISA)
Format: cell-based
Details: 10 μM compound pretreatment 2 h, then 0.5 μg/mL LPS 22 h, LPS control = 100, FIG. 2
Method: The present invention tested the dose-effect relationship of some of the compounds of Examples in inhibiting the release of IL-6 and TNF-α from J774A.1 macrophages stimulated by LPS. The specific method is as follows: 1.2×10^6 […] macrophages were cultured by DMEM culture solution at 37° C., the culture solution was renewed after 24 h, the tested example compound (at a final concentration of 10 μM) was added for pretreatment for 2 h and then continuously treated by 0.5 μg/mL of LPS for 22 h, the culture solution was collected, and the content of IL-6 and TNF-α was detected by ELISA method. The total protein concentration was measured by collecting cells, the ELISA results were divided by the corresponding total protein concentration and calibrated by the IL-6 and TNF-α content of LPS control group as 100, and the average and error values were calculated.

SMILES: FC(F)(F)c1ccccc1/C=C1\CCC/C(=C\c2ccccc2C(F)(F)F)C1=NOCc1cccc(Cl)c1 [Example 17, 2,6-(E,E)-(2-(trifluoromethyl)benzylidene)cyclohexan-1-one-3-chlorobenzyl oxime]
- inhibitory effect on the release of TNF-α: significant inhibitory effect
